According to patent US20250304675A1 (MHS CARE INNOVATION, published 2025):
These are yes or no findings as the source states them, for the method shown. Some entries that bind do so weakly or less than the wild type.

Amino acid sequences for entries named in this document (tags omitted). A change or cut given only in a name is not applied to a line headed by its entry.
UniProt P09681: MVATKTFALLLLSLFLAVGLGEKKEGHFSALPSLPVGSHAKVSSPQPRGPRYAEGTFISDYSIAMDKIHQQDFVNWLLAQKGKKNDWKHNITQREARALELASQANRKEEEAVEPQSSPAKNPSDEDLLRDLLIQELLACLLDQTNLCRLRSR

What was measured:
[1] = target: gastric inhibitory polypeptide (GIP), species not stated at the place of the result (Homo sapiens (Human)) (UniProt P09681); assay: surface plasmon resonance (values not given)
[2] = target: human gastric inhibitory polypeptide (glucose-dependent insulinotropic polypeptide) (human); assay: direct binding ELISA on coated human GIP; 8th of 10 in the printed order
[3] = target: T1, synthetic mouse GIP (1-42) (mouse); assay: hybridoma screen as described above (GIP in suspension, ELISA on coated mouse GIP)
T1 sequence (peptide): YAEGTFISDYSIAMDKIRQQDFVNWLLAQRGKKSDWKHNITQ

B1: 10g10 monoclonal antibody (original mouse mAb) (antibody, V domains shown)
VH: QVQLQESGAELVRSGASVKLSCTASGFNIRDYYLHWIKQRPEQGLEWIGWIDPENGDTEYAPKFQDKATVTADTSSNTAYLQLNSLTSEDTAVYYCNVYGIYFMDYWGQGTTVTVSS
VL: DIQLTQSPSTMAASPGEKITITCSASSSISSNSLHWYQQKPGFSPKLLIYRTSNLASGVPGRFSGSGSGTSYSLTIGTMETEDVATYYCQQGSSFPRMLTFGTGTKLEIKR
notes: Mouse hybridoma antibody; also called 10g10 mAb; 10g10 GIP mAb
[1]
  binding: binds
[2]
  binding: binds
[3]
  binding: binds

B2: LC2/HC2 humanized antibody (antibody, V domains shown)
VH: QVQLVQSGAEVKKPGATVKISCKASGFNIRDYYLHWVQQAPGKGLEWMGWIDPENGDTEYAPKFQGRVTITADTSTNTAYMELSSLRSEDTAVYYCNVYGIYFMDYWGQGTMVTVSS
VL: DIQLTQSPSSVSASVGDRVTITCRASSSISSNSLHWYQQKPGKAPKLLIYRTSNLQSGVPSRFSGSGSGTDYTLTISSLQPEDFATYYCQQGSSFPRMLTFGQGTKLEIKR
notes: CHO supernate in the ELISA; Protein A purified in the neutralization assay; also called mAbH; GIP mAbH
[1]
  binding: binds
